The values that follow come from paper PMC11476177.

The chains behind the UniProt entries cited, without tags or fusion partners. Where a name states a change or a piece, a line headed by the entry shows the natural chain unless it says otherwise.
UniProt Q04206: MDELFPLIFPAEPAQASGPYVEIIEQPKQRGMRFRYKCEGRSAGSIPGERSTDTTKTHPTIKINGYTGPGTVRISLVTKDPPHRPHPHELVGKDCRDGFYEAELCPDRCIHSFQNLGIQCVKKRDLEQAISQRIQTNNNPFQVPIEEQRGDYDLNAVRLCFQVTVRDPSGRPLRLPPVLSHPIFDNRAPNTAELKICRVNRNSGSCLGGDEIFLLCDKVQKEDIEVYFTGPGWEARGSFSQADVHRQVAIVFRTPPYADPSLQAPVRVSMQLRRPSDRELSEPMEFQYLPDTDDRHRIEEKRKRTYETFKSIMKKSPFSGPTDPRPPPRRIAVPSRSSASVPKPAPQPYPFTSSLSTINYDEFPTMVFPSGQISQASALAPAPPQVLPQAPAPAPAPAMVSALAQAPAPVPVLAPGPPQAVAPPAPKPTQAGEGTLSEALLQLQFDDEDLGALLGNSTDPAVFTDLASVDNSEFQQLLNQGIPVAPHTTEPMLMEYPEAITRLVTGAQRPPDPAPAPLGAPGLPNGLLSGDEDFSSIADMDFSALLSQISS

The exact form of at least one protein or probe is not confirmed.

The data set addresses His-p65 (UniProt Q04206). Description: EMSA. Particulars: 100 nM p65, displaced from the probe by rising TonEBP sNT (100-500 nM); EMSA: 10 mM Tris-HCl pH 7.5, 10 mM NaCl, 40 mM KCl, 1 mM MgCl2, 1 mM EDTA, 1 mM DTT, 50 ug/mL BSA, 100 nM probe, 25 min room temp, 0.8% agarose; recombinant protein; protein details: N-terminal His; label: Cy5.5.

Turning to “ATAGGAAAACTGAAAGGGAGAAGTGAAAGTGGGAAATTCC (double strand) [Probe IRF3/p65 (Cy5.5)]”, the binding result is listed as “binds”.
